Literature values, collected in patent US9566351B2, “Molecular containers and methods of making and using same” (University of Maryland, College Park, priority 2010, dated 2017).
For at least one compound, name, drawing or mass did not settle the structure.

Conditions: toxicity, point of comparison; cited from earlier work

CCC(=O)O[C@H]1[C@H](O[C@@H]2[C@@H](C)[C@H](O[C@H]3C[C@@](C)(OC)[C@@H](O)[C@H](C)O3)[C@@H](C)C(=O)O[C@H](CC)[C@@](C)(O)[C@H](O)[C@@H](C)C(=O)[C@H](C)C[C@@]2(C)O)O[C@H](C)C[C@@H]1N(C)C [erythromycin estolate]
EC50: 109 µM
